The subject of the test is allergic reaction to processionary caterpillar toxin.

SMILES strings stand for the structures.

`CCN(CC)CC(=O)Nc1c(C)cccc1C` [lidocaine base, lidocaine]: the itching skin rash entry (after 1 hour) is “improved dramatically”. Also, under “sublingual 100 mg”, the “time until all respiratory symptoms had disappeared” value amounted to 15 min and the “time until symptoms started to improve” value was at most 10 min.

The record behind these values is patent US12419848B2, “Treatment of hyperinflammatory syndrome” (priority 2020, dated 2025).
